Results reported in publication PMC10817170, “Effect of an NHE3 inhibitor in combination with an NPT2b inhibitor on gastrointestinal phosphate absorption in Rodent models” (PLOS ONE, 2024).

Test system: T1, NHE3
T1 construct: from tissue; host or cells: intestine of living SD rats
Test: Sodium and phosphate excretion in urine after oral NaH2PO4 bolus in rats
Type: in vivo
Method: To assess sodium and phosphate absorption in rats, we took advantage of the increase in urinary sodium and phosphate excretion following an oral bolus of sodium phosphate. Thus, an LY3304000 dependent decrease in urinary sodium and phosphate excretion following an oral bolus dose of sodium phosphate is an indirect measurement of the ability of LY3304000 to inhibit sodium and phosphate absorption in intestine. A dosing solution of 3 mg/kg LY3304000 for a 10 mL/kg dose volume was formulated in 1% HEC. The subsequent dosing solutions of 1, 0.3, 0.1, 0.03, 0.01, 0.003, and 0.001 mg/kg LY3304000 were prepared by serial dilutions with 1% HEC. […] In this and subsequent studies where phosphate absorption is measured, a 4 hour fast was used which is less disruptive to the animal’s normal physiology than the 12 hours fast used to measure acute phosphate uptake into plasma. […] The net urine volume was recorded. Urinary sodium, creatinine, and phosphorus (as a measure of phosphate) were determined using a clinical biochemistry analyzer. The urinary sodium-to-creatinine and phosphorus-to-creatinine ratios were calculated and compared between vehicle and LY3304000 treated groups. The ratios of urinary-to-dietary phosphate (measured as phosphorus) and urinary-to-dietary sodium in urine were compared between vehicle and LY3304000 treated groups.

SMILES: CN1Cc2c(Cl)cc(Cl)cc2[C@H](c2cccc(S(=O)(=O)NCCOCCOCCN/C(=N\C(N)=O)NCCCCN/C(=N/C(N)=O)NCCOCCOCCNS(=O)(=O)c3cccc([C@@H]4CN(C)Cc5c(Cl)cc(Cl)cc54)c3)c2)C1.Cl.Cl [LY3304000, (Z)-[[4-[[(Z)-N’-carbamoyl-N-[2-[2-[2-[[3-[(4S)-6,8-dichloro-2-methyl-3,4-dihydro-1H-isoquinolin-4-yl]phenyl]sulfonylamino]ethoxy]ethoxy]ethyl]carbamimidoyl]amino]butylamino]-[2-[2-[2-[[3-[(4S)-6,8-dichloro-2-methyl-3,4-dihydro-1H-isoquinolin-4-yl]phenyl]sulfonylamino]ethoxy]ethoxy]ethylamino]methylene]urea dihydrochloride]
- slope of the curve, urinary phosphate excretion: 1.90
- slope of the curve, urinary sodium excretion: 2.13
